# Values joined by “and” are separate entries in the source; they are usually repeats but may differ in a detail not shown here. Identical values can stand only once. Counter-ions that a name gives are not always drawn. ± gives the standard deviation of the averaged measurements. This is one part of the list. Part of the spread comes from offsets between plates or batches.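 Assay uses culture-activated primary human stellate myofibroblasts; lipid droplet recovery indicates inactivation. Measured: proportion of Hoechst-counted cells over a plate-specific Bodipy cutoff, duplicate wells, DMSO and nortriptyline as per-plate negative and positive controls. A hit scores, control-normalized, above the plate's top-tenth-percentile nortriptyline wells or ranks among its three best wells. Final well concentrations not reported.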
# Test system: primary human hepatic stellate cells (donor 1)
# Test: percent Bodipy-positive cells; higher = more lipid droplet accumulation
# Settings: 48 h
# [1] = library stock concentration: 10 mM
# [2] = library stock concentration: 3.33 mM
# [3] = library stock concentration: 2 mM
# [4] = library stock concentration: 1 mM
# [5] = library stock concentration: 6.4 mM
# [6] = library stock concentration: 80 uM
# [7] = library stock concentration: 400 uM
structure (smiles),measurement,setting,value
C[C@H]1[C@@H](O)O[C@@H]2O[C@@]3(C)CC[C@H]4[C@H](C)CC[C@@H]1[C@@]24OO3,percent Bodipy-positive cells,[1],35 ± 5.8%
C[C@H]1[C@@H](O)O[C@@H]2O[C@@]3(C)CC[C@H]4[C@H](C)CC[C@@H]1[C@@]24OO3 [Dihydroartemisinin (DHA)],percent Bodipy-positive cells,[2],8.72 ± 0.15%
same,percent Bodipy-positive cells,[1],7.5 ± 1.8%
Cc1cc(C)cc(C(=O)N(C)[C@H](Cc2ccc(-c3ccccc3)cc2)C(=O)N[C@@H](Cc2c[nH]c3ccccc23)C(=O)O)c1,percent Bodipy-positive cells,[1],11.8 ± 0.21%
O=c1[nH]c2ccccc2c2ccccc12 [6(5H)-Phenanthridinone],percent Bodipy-positive cells,[1],14.7 ± 5.4%
same,percent Bodipy-positive cells,library stock concentration: 25.6 mM,21.6 ± 2.1%
C=CC(=O)Nc1cc(Nc2nccc(-c3cn(C)c4ccccc34)n2)c(OC)cc1N(C)CCN(C)C,percent Bodipy-positive cells,[3],68.1 ± 12%
CCCCC[C@@](C)(O)/C=C/[C@@H]1[C@@H](C/C=C\CCCC(=O)O)[C@@H](O)C[C@H]1O [15(R)-15-methyl Prostaglandin F2.alpha.],percent Bodipy-positive cells,[4],15.7 ± 0.89%
C#CCN(C)Cc1ccccc1 [Pargyline (hydrochloride)],percent Bodipy-positive cells,[4],6.47 ± 1.4%
C#CCN(C)Cc1ccccc1 [Pargyline hydrochloride],percent Bodipy-positive cells,,28.3 ± 4.9%
same,percent Bodipy-positive cells,[1],13.3 ± 4.3%
CCCCCC(=O)/C=C/[C@@H]1[C@@H](C/C=C\CCCC(=O)O)[C@@H](O)C[C@H]1O [15-keto Prostaglandin F2.alpha.],percent Bodipy-positive cells,[4],19.4 ± 3%
CN(C)c1ccc(C(=O)NCCCCCCC(=O)NO)cc1,percent Bodipy-positive cells,[2],55.4 ± 5.5%
same,percent Bodipy-positive cells,[1],71.4 ± 1.8%
OC(CCN1CCCCC1)(c1ccccc1)C1CC2C=CC1C2 (stereo not given) [Biperiden],percent Bodipy-positive cells,[5],55.2 ± 5.5%
OC(CCN1CCCCC1)(c1ccccc1)C1CC2C=CC1C2 (stereo not given) [Biperiden hydrochloride],percent Bodipy-positive cells,,65.4 ± 3.6%
same,percent Bodipy-positive cells,[1],82.3 ± 2.3%
OC(CCN1CCCCC1)(c1ccccc1)C1CC2C=CC1C2 (stereo not given) [Biperiden HCl],percent Bodipy-positive cells,[2],20 ± 3.1%
same,percent Bodipy-positive cells,[1],47.15 ± 0.13%
Cc1ncc([N+](=O)[O-])n1CCO [Metronidazole],percent Bodipy-positive cells,,29.6 ± 7.3%
same,percent Bodipy-positive cells,[2],6.13 ± 3.8%
same,percent Bodipy-positive cells,[1],15.1% and 13.2%
Cc1ncc([N+](=O)[O-])n1CCO,percent Bodipy-positive cells,[1],7.14 ± 0.088%
CCN(CC)CC#CCOC(=O)C(O)(c1ccccc1)C1CCCCC1 (stereo not given) [Oxybutynin chloride],percent Bodipy-positive cells,,56.9 ± 6.2%
same,percent Bodipy-positive cells,[2],34.6 ± 11%
same,percent Bodipy-positive cells,library stock concentration: 5.1 mM,44.6 ± 8.5%
same,percent Bodipy-positive cells,[1],62.1 ± 5.3%
CC(=O)O/N=C1\C(=O)N(Cc2cc(Cl)ccc2Cl)c2ccc(Cl)cc21,percent Bodipy-positive cells,[2],22.4 ± 0.53%
same,percent Bodipy-positive cells,[1],38.8 ± 14%
N=C(N)c1ccccc1 [Benzamidine hydrochloride],percent Bodipy-positive cells,[1],41.7 ± 2%
O=C(NCCNCC(O)COc1ccc(O)cc1)N1CCOCC1 (stereo not given) [Xamoterol hemifumarate],percent Bodipy-positive cells,,8.31 ± 0.53%
same,percent Bodipy-positive cells,library stock concentration: 5.9 mM,9.76 ± 3.9%
same,percent Bodipy-positive cells,[1],8.87 ± 1.5%
CCN(Cc1ccncc1)C(=O)C(CO)c1ccccc1 (stereo not given) [Tropicamide],percent Bodipy-positive cells,,31.3 ± 4.9%
same,percent Bodipy-positive cells,[2],15.8 ± 0.42%
same,percent Bodipy-positive cells,library stock concentration: 7 mM,9.33% and 14.7%
CC(C)N1CCN(c2ccc(OCC3COC(Cn4cncn4)(c4ccc(Cl)cc4Cl)O3)cc2)CC1 (stereo not given) [Terconazole],percent Bodipy-positive cells,,40.9 ± 1.4%
Clc1ccc2c(c1)N=C(N1CCNCC1)c1ccccc1N2 [N-Desmethylclozapine],percent Bodipy-positive cells,[1],97.2 ± 1.6%
CN1C2CCCC1CC(NC(=O)c1nn(C)c3ccccc13)C2 (stereo not given) [Granisetron],percent Bodipy-positive cells,[5],8.82 ± 3.7%
CN1C2CCCC1CC(NC(=O)c1nn(C)c3ccccc13)C2 (stereo not given) [Granisetron hydrochloride],percent Bodipy-positive cells,[1],36.2 ± 2.3%
CN1C2CCCC1CC(NC(=O)c1nn(C)c3ccccc13)C2 (stereo not given),percent Bodipy-positive cells,[1],15.4 ± 9.4%
COc1cc2c(Oc3ccc4[nH]c(C)cc4c3F)ncnc2cc1OCCCN1CCCC1 [Cediranib],percent Bodipy-positive cells,[3],79.1 ± 1.4%
Cc1ccc(C(=O)c2cc(O)c(O)c([N+](=O)[O-])c2)cc1 [Tolcapone],percent Bodipy-positive cells,[2],6.88 ± 2.4%
same,percent Bodipy-positive cells,library stock concentration: 7.3 mM,11.6 ± 2.4%
same,percent Bodipy-positive cells,[1],44.4 ± 2.7%
O=Nc1c(-c2c(O)[nH]c3ccccc23)[nH]c2ccccc12 [Indirubin-3'-monoxime],percent Bodipy-positive cells,[2],3.82 ± 1%
same,percent Bodipy-positive cells,library stock concentration: 18 mM,2.87 ± 1%
O=Nc1c(-c2c(O)[nH]c3ccccc23)[nH]c2ccccc12 [Indirubin-3'-oxime],percent Bodipy-positive cells,[1],8% and 4.22%
NC[C@H]1O[C@H](O[C@H]2[C@H](O[C@@H]3O[C@H](CO)[C@@H](O)[C@H]3O)[C@@H](O)[C@H](N)C[C@@H]2N)[C@H](N)[C@@H](O)[C@@H]1O [Ribostamycin sulfate salt],percent Bodipy-positive cells,,7.69 ± 1.6%
NC[C@H]1O[C@H](O[C@H]2[C@H](O[C@@H]3O[C@H](CO)[C@@H](O)[C@H]3O)[C@@H](O)[C@H](N)C[C@@H]2N)[C@H](N)[C@@H](O)[C@@H]1O [Ribostamycin sulfate],percent Bodipy-positive cells,[1],28.3 ± 8.4%
CCCCC/C=C\C[C@@H](O)/C=C/c1cccc(C[C@@H](O)CCCCO)n1,percent Bodipy-positive cells,library stock concentration: 100 uM,9.27 ± 7%
O=C([O-])c1ccccc1O.[Na+] [Sodium salicylate],percent Bodipy-positive cells,[2],10.6 ± 4.4%
same,percent Bodipy-positive cells,[1],31.8% and 13.5%
COc1ccc2[nH]cc(CCNC(C)=O)c2c1 [Melatonin],percent Bodipy-positive cells,,31.9 ± 11%
same,percent Bodipy-positive cells,[2],8.98 ± 1.4%
same,percent Bodipy-positive cells,library stock concentration: 8.6 mM,8.96 ± 5.7%
C=CC[C@@H]1/C=C(\C)C[C@H](C)C[C@H](OC)[C@H]2O[C@@](O)(C(=O)C(=O)N3CCCC[C@H]3C(=O)O[C@H](/C(C)=C/[C@@H]3CC[C@@H](O)[C@H](OC)C3)[C@H](C)[C@@H](O)CC1=O)[C@H](C)C[C@@H]2OC [Tacrolimus (FK506)],percent Bodipy-positive cells,[2],4.76 ± 2.3%
same,percent Bodipy-positive cells,[1],6.72 ± 0.26%
C=CC[C@@H]1/C=C(\C)C[C@H](C)C[C@H](OC)[C@H]2O[C@@](O)(C(=O)C(=O)N3CCCC[C@H]3C(=O)O[C@H](/C(C)=C/[C@@H]3CC[C@@H](O)[C@H](OC)C3)[C@H](C)[C@@H](O)CC1=O)[C@H](C)C[C@@H]2OC,percent Bodipy-positive cells,[4],5.57 ± 0.13%
same,percent Bodipy-positive cells,library stock concentration: 6.2 mM,19.8 ± 6.7%
same,percent Bodipy-positive cells,[1],6.15 ± 2.1%
CN(C)Cc1cccc(N=C(c2ccccc2)c2c(O)[nH]c3cc(C(N)=O)ccc23)c1,percent Bodipy-positive cells,[6],7.16 ± 3.1%
same,percent Bodipy-positive cells,[7],11.5 ± 2.7%
same,percent Bodipy-positive cells,[3],9.58 ± 2.8%
same,percent Bodipy-positive cells,[2],25 ± 14%
same,percent Bodipy-positive cells,[1],76.7% and 84.2%
O=C(N/N=C/c1ccc(O)c(O)c1)c1cc2ccccc2cc1O [Dynasore],percent Bodipy-positive cells,[2],35.2 ± 12%
same,percent Bodipy-positive cells,[1],23.1 ± 1.3%
COC(=O)C1=C(C)NC(C)=C(C(=O)OC)C1c1cccc(NC(=O)NCCCN2CCC(c3cccc(OC)c3)CC2)c1,percent Bodipy-positive cells,[1],99.76 ± 0.34%
CSC(N)=NCCC[C@@H](N)C(=O)O [S-methyl-L-Thiocitrulline (hydrochloride)],percent Bodipy-positive cells,[4],9.42 ± 2.7%
O=C(O)CCNc1cc(N2CCc3ccccc3CC2)nc(-c2ccccn2)n1,percent Bodipy-positive cells,[6],34.1 ± 7.8%
same,percent Bodipy-positive cells,[7],48.5 ± 2.1%
same,percent Bodipy-positive cells,[3],43.1 ± 9.7%
same,percent Bodipy-positive cells,[1],30 ± 7%
Cc1c(C(=O)N(C)C2CCCCC2)sc2nc3ccc(N)cc3n12,percent Bodipy-positive cells,[1],5.87 ± 1.2%
COc1ccc(COc2ccc(Cc3cnc(N)nc3N)cc2OC)cc1 [cFMS Receptor Tyrosine Kinase Inhibitor],percent Bodipy-positive cells,[2],11.6 ± 2%
COc1ccc(COc2ccc(Cc3cnc(N)nc3N)cc2OC)cc1,percent Bodipy-positive cells,[6],7.57 ± 1.7%
same,percent Bodipy-positive cells,[7],10.7 ± 7.1%
same,percent Bodipy-positive cells,[3],23.2 ± 4.5%
same,percent Bodipy-positive cells,[2],54.7 ± 2.6%
